The text below walks through data of publication PMC9232636, “Insights into the mechanism of action of the arbitrium communication system in SPbeta phages” (Nature Communications, 2022).

Amino acid sequences for entries named in this document (tags omitted). A change or cut given only in a name is not applied to a line headed by its entry.
UniProt O64094: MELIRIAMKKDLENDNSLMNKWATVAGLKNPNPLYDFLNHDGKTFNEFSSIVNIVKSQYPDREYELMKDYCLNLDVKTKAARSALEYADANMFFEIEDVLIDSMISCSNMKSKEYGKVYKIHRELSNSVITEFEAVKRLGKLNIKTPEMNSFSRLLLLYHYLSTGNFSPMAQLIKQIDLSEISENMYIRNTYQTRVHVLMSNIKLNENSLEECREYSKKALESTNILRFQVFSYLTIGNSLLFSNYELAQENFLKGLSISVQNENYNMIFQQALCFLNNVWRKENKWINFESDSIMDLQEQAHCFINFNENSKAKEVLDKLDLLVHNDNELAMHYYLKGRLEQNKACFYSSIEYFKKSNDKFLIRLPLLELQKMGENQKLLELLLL

For orientation: Kd means the free concentration of one partner at which half of the binding sites on the other are occupied at equilibrium, for simple one-to-one binding.

Data set [1] addresses AimRSPb-I (untagged) (Bacillus phage SPbeta) (UniProt O64094). Kind of data set: BLI. The following applies: BLI: PBS (0.01% Tween, 0.1% BSA for hydration, baseline and dissociation), AimR 0.015-2.5 uM, temperature not stated; recombinant protein; protein details: N-terminal His tag removed.
For data set [2], the target named is AimRKat (UniProt A0A7G5CHT1). Kind of data set: EMSA. The note with it: EMSA: 50 mM Tris pH 8, 250 mM NaCl, room temperature 10 min, 0.5 uM peptide, gel at 4 C, recombinant protein, protein details: N-terminal 6xHis removed by TEV. Background: A gel shift assay detects complexes by their altered migration in electrophoresis.
For data set [3], the target named is AimRKat-N273A (UniProt A0A7G5CHT1). Kind of data set: EMSA. The note with it: EMSA: 50 mM Tris pH 8, 250 mM NaCl, room temperature 10 min, 0.5 uM peptide, gel at 4 C, recombinant protein, protein details: N-terminal 6xHis removed by TEV.
Setting [4] is: AimPKat peptide GIVRGA (releases DNA).

Construct, isoform or probe ends are uncertain for at least one entry. For some assays here: Negatives hold for the conditions tested. For some assays here: At least one verdict was read from the data and is not stated in words by the source.

With “GGGAAAGTTCCAGAAATTCAAAAATCAAAAAATAAGAACATGGGG (double strand) [aimX-boxPhi BLI probe (DNA_Phi3T_b)]”, the Kd in data set [1] was greater than 1000 nM.
Consider “GTTGATCACTTAAATATTAAGTTTTTATAACATCTAGTGATGGCC (double strand) [aimX-boxKat EMSA probe (DNA_kat)]”, for which the binding result in data set [2] (setting [4]) was “no binding”; in data set [2] (AimPPhi peptide SAIRGA), “binds”; in data set [2] (AimPSPb peptide GMPRGA), “binds”; in data set [2] (no peptide), “binds”; in data set [3] (setting [4]) it was “no binding”; in data set [3] (AimPPhi peptide SAIRGA), “binds”. Also, the binding result in data set [3] (AimPSPb peptide GMPRGA (releases DNA)) was “no binding”; in data set [3] (no peptide), “binds”.
Take “GTTGATGTTCCAGAAATTCAAAAATCAAAAAATAAGAACATGGCC (double strand) [aimX-boxPhi EMSA probe (DNA_Phi3T)]”: in data set [2] (faint nonspecific shadow noted in review reply), the binding result is on record as “no binding”.
Regarding “GTTGATCACTTAAATATTAGGTTTTAATAACATCTAGTGATGGCC (double strand) [aimX-boxSPb EMSA probe (DNA_SPb)]”, the binding result in data set [2] (no peptide) is “binds”.
